According to patent US20190194313A1:
These are yes or no findings as the source states them, for the method shown. Some results given as binding are weak or reduced against the parent protein; the word gives no strength.

Experiments:
[1] = molecular target: Cynomolgus sIL6R (cynomolgus); test: BLI, Octet Red 96
[2] = molecular target: Cynomolgus sIL6R (cynomolgus); test: ELISA (enzyme immunoassay), antibody titrated 2 to 0.0039 ug/ml; plate format not described

binding [1]: binds | binding [2]: binds
B1: BCD089 antibody (anti-IL-6sR) (antibody, IgG1, V domains shown)
VH: QVQLVQSGGGLVQPGGSLRLSCAASGFTFSSYYMSWVRQAPGKGLEWVSGIYSDGTTHYGDSVKGRFTISRDNAKNTVYLQLNSLRAEDTAMYYCAKGAGPTWWYALDAWGQGTLVTVSS
VL: DIQLTQSPSSVSVSVGERVTIDCKSSQSVLSASNTYLNWYQQKPGQAPQLLIYYASTRESGVPDRFSGSGSGTDFTLTISSLQAEDAAVYYCQQAYRAPVTFGQGTKLEIKR
